In US9051351B2, “Hepatocyte growth factor mimics as therapeutic agents” (Washington State University, priority 2011, dated 2015):
Not every detail of the peptide structures is certain; ends, links or a residue may be inferred. Where a SMILES comes first, the peptide text is derived from it. [ ]: non-standard residue; d: D form. dNle = CCCC[C@@H](N)C(=O)O; Nle = CCCC[C@H](N)C(=O)O

Assays:
Assay type in all cases: cell-based, rat
hippocampal neurons [1] = experiment: Dendritic spine counts (spinogenesis) in mRFP-β-actin transfected dissociated hippocampal neurons; conditions: for spine numbers, stabilized AngIV analogs (FIG. 31): concentrations lower than 10^-10 M
Procedure: Hippocampal neurons (2×10^5 cells per square cm) were cultured from P1 Sprague Dawley rats on plates coated with poly-L-lysine from Sigma (St. Louis, Mo.; molecular weight 300,000). […] Each experiment was repeated at least three times using independent culture preparations. […] Hippocampal neurons (2×10^5 cells per square centimeter) were cultured from P1-2 Sprague Dawley rats on plates coated with poly-L-lysine from Sigma (St. Louis, Mo.; molecular weight 300,000). Hippocampal neurons were maintained in Neurobasal A media from Invitrogen (Carlsbad, Calif.) supplemented with B27 from Invitrogen, 0.5 mM L-glutamine, and […] cytosine-D-arabinofuranoside from Sigma added at 2 days in vitro. Hippocampal neurons were then cultured a further 3-7 days, at which time they were either transfected or treated with various pharmacological reagents as described in the text or figure legends. Neurons were transfected with mRFP-β-actin on day in vitro 6 […] using LipofectAMINETM 2000 (Invitrogen) according to the manufacturer's protocol. […] On DIV7 the cells were treated with vehicle (H20) or peptides (as described in the text) added to media. […] Five 50 μm long segments of dendrite from at least 10 neurons per data point were analyzed for each data point reported. Each experiment was repeated at least three times using independent culture preparations. […] A target sequence for c-Met was designed using RNAi central design program (see the website located at […].edu/). The target sequence […] NO: 2) was inserted into pSUPER vector (Oligoengine, Seattle Wash.) which drives endogenous production of shRNA under the H1 promoter. The shRNA was transfected into cells using the lipofectamine method described above. Verification of receptor knockdown was done by creating a c-[…]-Myc tagged gene product using the Gateway cloning system (Invitrogen). The Met protein coding sequence was cloned from rat whole brain cDNA using primers obtained from Integrated DNA Technologies, Inc. The amplified product was gel purified and a band corresponding to 190 kDa band excised and cloned into a […] destination vector (Gateway). Hippocampal neurons (2×10^5 cells per square cm) were cultured from P1 Sprague Dawley rats on plates coated with poly-L-lysine from Sigma (St. Louis, Mo.; molecular weight […]).

hippocampal neurons [2] = experiment: Whole-cell recordings of mEPSCs in dissociated hippocampal neurons; conditions: 10^−12 M, 5 days
hippocampal neurons [3] = experiment: Spine head width in mRFP-β-actin transfected hippocampal neurons; conditions: 10^−12 M, 5 days
Excerpt: Neurons were transfected with mRFP-β-actin on day in vitro 6 […] using LipofectAMINE™ 2000 (Invitrogen) according to the manufacturer's protocol. This protocol yielded the desired 3-5% transfection efficiency thus enabling the visualization of individual neurons. Higher efficiencies obscured the dendritic arbor of individual neurons. Expression of fluorescently tagged actin allowed clear visualization of dendritic spines, as dendritic spines are enriched in actin. On DIV7 the cells were treated with vehicle (H2O) or peptides (as described in the text) added to media. […] Slides were dried for at least 20 hours at 4° C. and fluorescent images were obtained with Slidebook 4.2 Digital Microscopy Software driving an Olympus IX81 inverted confocal microscope with a 60× oil immersion lens, NA 1.4 and resolution 0.280 μm Dendritic spine density was measured on primary and secondary dendrites at a distance of at least 150 μm from the soma. Five 50 μm long segments of dendrite from at least 10 neurons per data point were analyzed for each data point reported. […] Dendrite length was determined using the National Institutes of Health's Image J 1.41o program (NIH, Bethesda, Md.) and the neurite tracing program Neuron J (Meijering, Jacob et al. 2004) Spines were manually counted. […]

CA1 hippocampal neurons = experiment: Spinogenesis in organotypic hippocampal slice cultures; conditions: 10^−12 M Nle1-AngIV or Dihexa, 10 ng/ml HGF; 2 days
Procedure: (§1) Hippocampi from P4 Sprague Dawley rats were cultured as previously described (Wayman, hnpey et al. 2006). Briefly, 400 μm slices were cultured on (Milipore, Billerica, Mass.) for 3 days after which they were biolistically transfected with tomato fluorescent protein (TFP) using a Helios Gen Gun (BioRad, Hercules, Calif.), according to the manufacturer's protocol, to visualize dendritic arbors. Following a 24 hour recovery period slices were stimulated with vehicle (H2O), 1 pM Nle1-AngIV or Dihexa for 2 days. Slices were fixed and mounted. Hippocampal CA1 neuronal processes were imaged and measured as described above.
as §1, with “Impey” for “hnpey”, “Gene” for “Gen”, “with” for “with vehicle (H2O),”, “Slices were fixed and mounted.” left out
Hippocampi from P4 Sprague Dawley rats were cultured as previously described (Wayman, Impey et al. 2006). […] Hippocampal CA1 neuronal processes were imaged and measured as described above.

hippocampal neurons [4] = experiment: Immunocytochemistry: percent correlation of spines to synaptic markers; conditions: 10^−12 M, 5 days
Procedure: (§2) Transfected neurons were treated, fixed and stained. Briefly, cells were permeablized with 0.1% Triton X-100 detergent (Bio-Rad; Hercules, Calif.) for 10 minutes. An 8% bovine serum albumin (Intergen Company; Burlington, Mass.) in PBS was used to prevent non-specific binding for one hour at R.T.; Primary antibody incubations were at a 1:2500 dilution (see below) in 1% BSA in PBS at 4° C. overnight. Secondary antibody, 1:3000 Alexafluor 488 goat-anti-mouse (Invitrogen: Carlsbad, Calif.) was applied for two hours at room temperature. Coverslips were mounted with ProLong Gold anti-fade reagent (Invitrogen; Carlsbad, Calif.) and all washes were done with PBS. Imaging and analysis were performed as described above. For presynaptic excitatory transmission the VGLUT1 (Synaptic Systems, Goettingen, Germany) marker (Balschun, Moechars et al.) was employed and for general presynaptic transmission synapsin1 (Synaptic Systems, Goettingen, Germany) (Ferreira and Rapoport 2002) was applied. A postsynaptic function was established by PSD-95 (Milipore, Billerica, Mass.) (El-Husseini, Schnell et al. 2000). In each instance the total number of spines was counted for the treatment groups, control, Nle1-AngIV and Dihexa, to ensure an active phenotype. The total number of actin enriched spines adjacent to VGLUT1 or Synapsin were counted and converted to a percentage as the percent correlation of treatment-induced spines to presynaptic markers is a strong indicator of ability to transmit excitatory signals.
as §2, with “fixed and stained as previously described in Chapter two. Briefly, cells” for “fixed and stained. Briefly, cells”, “enriched spines (red) adjacent to” for “enriched spines adjacent to”
Transfected neurons were treated and fixed as described above. Following fixation, cells were rinsed in PBS and permeabilized with 0.1% Triton® X-100 detergent (Bin-Rad; Hercules, Calif.), followed by two rinses in PBS and blocked with 8% bovine serum albumin (Intergen Company; Burlington, Mass.) in PBS for 1 h. […]

SMILES	spine numbers, stabilized AngIV analogs (FIG. 31) (hippocampal neurons [1])	frequency of AMPA-mediated mEPSCs (hippocampal neurons [2])	increase in mEPSC frequency over control (hippocampal neurons [2])	spine head width (hippocampal neurons [3])	spines per 50 μm dendrite length in CA1 hippocampal neurons (CA1 hippocampal neurons)	increase in the number of spines (hippocampal neurons [1]; 10^−12 M, 5 day treatment, vs vehicle)	mean spine numbers per 50 μm dendrite length (hippocampal neurons [1]; 10^−12 M, acute 30 minute application on DIV12)	percent correlation of treatment-induced spines to VGLUT1, Synapsin or PSD-95 vs control (hippocampal neurons [4])	percent correlation of treatment-induced spines to VGLUT1, Synapsin or PSD-95 vs control (hippocampal neurons [4]; listed as Nle^1-AngIV)	Number of spines/50 μm (hippocampal neurons [4]; PSD-95 study)	Number of spines/50 μm (hippocampal neurons [4]; Synapsin study)	Number of spines/50 μm (hippocampal neurons [4]; VGLUT1 study)
CCCC[C@@H](N)C(=O)N[C@@H](Cc1ccc(O)cc1)C(=O)N[C@H](C(=O)O)[C@@H](C)CC [D-Nle-Tyr-Ile] (H-[dNle]-Tyr-Ile-OH)	increasing spine numbers at even lower concentrations	–	–	–	–	–	–	–	–	–	–	–
CCCC[C@H](NC(C)=O)C(=O)N[C@@H](Cc1ccc(O)cc1)C(=O)N[C@H](C(=O)N[C@@H](Cc1c[nH]cn1)C(=O)O)[C@@H](C)CC [N-acetyl-Nle-Tyr-Ile-His] (Ac-[Nle]YIH-OH)	increasing spine numbers at even lower concentrations	–	–	–	–	–	–	–	–	–	–	–
CCCC[C@H](N)C(=O)N[C@@H](Cc1ccc(O)cc1)C(=O)N[C@H](C(=O)N[C@@H](Cc1c[nH]cn1)C(=O)N1CCC[C@H]1C(=O)N[C@@H](Cc1ccccc1)C(=O)O)[C@@H](C)CC [Nle1-AngIV, Norleucine-YIHPF, reference compound] (H-[Nle]YIHPF-OH)	–	5.27±0.43 Hz	1.7 fold	0.87 μm	11 spines per 50 μm dendrite length	greater than 2 fold	22.6 spines per 50 μm dendrite leng	did not differ from control treated neurons in percent correlation	did not differ from control treated neurons in the percent correlation	36 spines/50 μm	31 spines/50 μm	39 spines/50 μm
